Data: US20260242416A1, “ANTIMICROBIAL PEPTIDES” (priority 2023, published 2026)

Test system: microbial cells over eukaryotic cells
Assay: Selectivity index (ratio of the toxicity to the MIC)
[1] = range of selectivity indices, S. Enteritidis (second of three slash-separated values), N/O = no observed antimicrobial activity
[2] = range of selectivity indices, S. aureus (third of three slash-separated values), N/O = no observed antimicrobial activity
[3] = range of selectivity indices, E. coli (first of three slash-separated values), N/O = no observed antimicrobial activity

SMILES	Selectivity Index S. Enteritidis [1]	Selectivity Index S. aureus [2]	other results
CC[C@H](C)[C@H](NC(=O)CN)C(=O)N[C@@H](Cc1ccc(O)cc1)C(=O)N[C@H](C(=O)NCC(=O)N[C@@H](CCCNC(=N)N)C(=O)N[C@@H](CC(C)C)C(=O)N[C@@H](CC(C)C)C(=O)N1CCC[C@H]1C(=O)N[C@H](C(=O)N[C@@H](Cc1ccc(O)cc1)C(=O)N[C@H](C(=O)N1CCC[C@H]1C(=O)N[C@@H](CCC(N)=O)C(=O)N1CCC[C@H]1C(=O)N[C@@H](CCCNC(=N)N)C(=O)N1CCC[C@H]1C(=O)N1CCC[C@H]1C(=O)N[C@@H](Cc1c[nH]cn1)C(=O)N1CCC[C@H]1C(=O)N[C@@H](CCCNC(=N)N)C(=O)N[C@@H](CC(C)C)C(=O)N[C@@H](CCCNC(=N)N)C(=O)N[C@@H](CCCNC(=N)N)C(=O)O)[C@@H](C)CC)C(C)C)[C@@H](C)O [ApCe1] (H-GIYTGRLLPVYIPQPRPPHPRLRR-OH; N-terminus and C-terminus assumed)	N/O	–	–
CC[C@H](C)[C@H](NC(=O)[C@@H](N)Cc1ccccc1)C(=O)N[C@@H](CCCCN)C(=O)N[C@H](C(=O)N[C@@H](CCC(N)=O)C(=O)N[C@H](C(=O)N[C@@H](CC(C)C)C(=O)N[C@@H](CCCCN)C(=O)N[C@@H](Cc1c[nH]cn1)C(=O)N[C@@H](CC(C)C)C(=O)N[C@H](C(=O)N[C@@H](C)C(=O)NCC(=O)N[C@H](C(=O)N[C@@H](CCCNC(=N)N)C(=O)N[C@H](C(=O)N[C@@H](C)C(=O)N[C@@H](CCCNC(=N)N)C(=O)NCC(=O)N[C@@H](CC(C)C)C(=O)N[C@@H](CC(=O)O)C(=O)N[C@@H](Cc1c[nH]c2ccccc12)C(=O)N[C@@H](CCCCN)C(=O)N[C@@H](Cc1c[nH]c2ccccc12)C(=O)N[C@@H](CCCNC(=N)N)C(=O)O)C(C)C)C(C)C)C(C)C)C(C)C)[C@@H](C)O [CaCa2] (H-FIKTQVLKHLVAGVRVARGLDWKWR-OH; N-terminus and C-terminus assumed)	–	–	Selectivity Index S. aureus: >16/>1- >2/N/O
CC[C@H](C)[C@H](NC(=O)[C@H](CCCCN)NC(=O)[C@H](CS)NC(=O)[C@H](Cc1ccccc1)NC(=O)[C@H](CCCCN)NC(=O)[C@H](CCCNC(=N)N)NC(=O)[C@H](CO)NC(=O)[C@H](Cc1ccc(O)cc1)NC(=O)CNC(=O)[C@H](CS)NC(=O)[C@@H]1CCCN1C(=O)[C@H](C)NC(=O)[C@@H](NC(=O)[C@H](C)NC(=O)[C@H](Cc1ccccc1)NC(=O)[C@H](Cc1ccccc1)NC(=O)[C@H](Cc1ccccc1)NC(=O)[C@H](CCCNC(=N)N)NC(=O)[C@@H](N)CCCNC(=N)N)[C@@H](C)O)C(=O)N[C@H](C(=O)N[C@@H](CCCNC(=N)N)C(=O)N[C@@H](CCCNC(=N)N)C(=O)N[C@@H](CCCCN)C(=O)N[C@@H](CCCNC(=N)N)C(=O)O)[C@@H](C)O [CaCa4] (H-RRFFFATAPCGYSRKFCKITRRKR-OH; N-terminus and C-terminus assumed)	N/O	–	–
CC[C@H](C)[C@H](NC(=O)[C@H](CCCCN)NC(=O)[C@H](CS)NC(=O)[C@H](CCCCN)NC(=O)[C@H](CC(C)C)NC(=O)[C@H](CC(N)=O)NC(=O)[C@H](CC(=O)O)NC(=O)[C@H](CC(C)C)NC(=O)[C@H](CC(C)C)NC(=O)[C@@H](NC(=O)[C@@H](NC(=O)[C@H](C)NC(=O)[C@@H](NC(=O)[C@H](CC(N)=O)NC(=O)[C@H](CCCCN)NC(=O)[C@H](C)NC(=O)[C@@H](NC(=O)[C@H](CC(N)=O)NC(=O)[C@H](CCCCN)NC(=O)[C@H](C)NC(=O)[C@@H](NC(=O)[C@H](CC(=O)O)NC(=O)[C@H](CCSC)NC(=O)[C@H](Cc1ccccc1)NC(=O)CN)[C@@H](C)O)C(C)C)C(C)C)C(C)C)[C@@H](C)O)C(=O)N[C@H](C(=O)N[C@@H](CCCCN)C(=O)N[C@@H](C)C(=O)N[C@@H](CS)C(=O)O)[C@@H](C)O [OdMa13] (H-GFMDTAKNVAKNVAVTLLDNLKCKITKAC-OH; N-terminus and C-terminus assumed)	N/O	N/O	–
CC(C)C[C@H](NC(=O)CN)C(=O)N[C@@H](CC(C)C)C(=O)NCC(=O)N[C@@H](CCCCN)C(=O)N[C@H](C(=O)N[C@@H](CC(C)C)C(=O)NCC(=O)N[C@H](C(=O)NCC(=O)N[C@@H](CCCCN)C(=O)N[C@@H](CCCCN)C(=O)N[C@H](C(=O)N[C@@H](CC(C)C)C(=O)N[C@@H](CS)C(=O)NCC(=O)N[C@H](C(=O)N[C@H](C(=O)NCC(=O)N[C@@H](CCCNC(=N)N)C(=O)N[C@@H](CCC(=O)O)C(=O)N[C@@H](CCCNC(=N)N)C(=O)N[C@@H](CS)C(=O)N[C@@H](CCC(N)=O)C(=O)O)[C@@H](C)O)C(C)C)C(C)C)C(C)C)C(C)C [PeNi5] (H-GLLGKVLGVGKKVLCGVTGRERCQ-OH; N-terminus and C-terminus assumed)	N/O	> 2	–
CC[C@H](C)[C@H](NC(=O)[C@@H](N)C(C)C)C(=O)N1CCC[C@H]1C(=O)N[C@@H](Cc1ccccc1)C(=O)N[C@H](C(=O)N[C@@H](C)C(=O)N[C@@H](CO)C(=O)N[C@H](C(=O)N[C@@H](C)C(=O)N[C@@H](C)C(=O)N[C@@H](CCC(=O)O)C(=O)N[C@@H](CCSC)C(=O)N[C@@H](CCSC)C(=O)N[C@@H](Cc1c[nH]cn1)C(=O)N[C@@H](Cc1c[nH]cn1)C(=O)N[C@H](C(=O)N[C@@H](Cc1ccc(O)cc1)C(=O)N[C@@H](CS)C(=O)N[C@@H](C)C(=O)N[C@@H](C)C(=O)N[C@@H](CO)C(=O)N[C@@H](CCCCN)C(=O)N[C@@H](CCCNC(=N)N)C(=O)N[C@@H](CS)C(=O)N[C@@H](CCCCN)C(=O)N[C@@H](CC(N)=O)C(=O)O)C(C)C)C(C)C)C(C)C [PeNi7] (H-VIPFVASVAAEMMHHVYCAASKRCKN-OH; N-terminus and C-terminus assumed)	N/O	N/O	Selectivity Index E. coli [3]: > 1
CC[C@H](C)[C@H](N)C(=O)N[C@@H](CO)C(=O)N[C@H](C(=O)N[C@@H](CCCCN)C(=O)N[C@@H](CCC(=O)O)C(=O)N[C@@H](C)C(=O)N[C@@H](CC(C)C)C(=O)N[C@@H](CCC(=O)O)C(=O)N[C@@H](Cc1c[nH]cn1)C(=O)N[C@@H](CO)C(=O)N[C@@H](Cc1ccccc1)C(=O)N[C@@H](Cc1ccccc1)C(=O)N[C@@H](Cc1c[nH]cn1)C(=O)N[C@H](C(=O)N[C@H](C(=O)N1CCC[C@H]1C(=O)N[C@@H](CCCNC(=N)N)C(=O)N[C@@H](CCCCN)C(=O)N[C@@H](Cc1c[nH]c2ccccc12)C(=O)N[C@@H](CS)C(=O)N[C@@H](CCCCN)C(=O)N[C@@H](CCCCN)C(=O)N[C@@H](Cc1c[nH]cn1)C(=O)O)C(C)C)[C@@H](C)O)[C@@H](C)CC [PoSn1] (H-ISIKEALEHSFFHTVPRKWCKKH-OH)	–	–	Selectivity Index E. coli: >2/N/O/N/O; Selectivity Index S. Enteritidis: >2/N/O/N/O; Selectivity Index S. aureus: >2/N/O/N/O
CC[C@H](C)[C@H](NC(=O)[C@H](CO)NC(=O)[C@H](CC(C)C)NC(=O)[C@H](CO)NC(=O)[C@H](CCCCN)NC(=O)[C@H](CC(C)C)NC(=O)[C@H](C)NC(=O)[C@@H](N)[C@@H](C)O)C(=O)N[C@@H](CC(C)C)C(=O)N[C@@H](CCCCN)C(=O)N[C@@H](CCCCN)C(=O)N[C@@H](CC(C)C)C(=O)N[C@@H](C)C(=O)N[C@@H](CCCCN)C(=O)N[C@@H](CC(C)C)C(=O)N[C@@H](CC(N)=O)C(=O)N[C@@H](CCSC)C(=O)O [PoSn2, TALKSLSILKKLAKLNM] (H-TALKSLSILKKLAKLNM-OH; N-terminus and C-terminus assumed)	N/O	N/O	–
CC[C@H](C)[C@H](NC(=O)[C@H](CO)NC(=O)[C@@H]1CCCN1C(=O)[C@H](CC(C)C)NC(=O)[C@@H](NC(=O)[C@H](CCCCN)NC(=O)[C@H](C)NC(=O)[C@H](C)NC(=O)[C@H](CC(C)C)NC(=O)CNC(=O)[C@H](C)NC(=O)[C@@H](NC(=O)[C@@H](NC(=O)[C@@H]1CCCN1C(=O)[C@H](CC(C)C)NC(=O)[C@@H](N)Cc1ccccc1)C(C)C)C(C)C)C(C)C)C(=O)N[C@H](C(=O)N[C@@H](CS)C(=O)N[C@@H](C)C(=O)N[C@H](C(=O)N[C@H](C(=O)N[C@@H](CCCCN)C(=O)N[C@@H](CCCCN)C(=O)N[C@@H](CS)C(=O)O)[C@@H](C)O)C(C)C)[C@@H](C)CC [RaCa15] (H-FLPVVAGLAAKVLPSIICAVTKKC-OH; N-terminus and C-terminus assumed)	8- 32	N/O	Selectivity Index E. coli [3]: 4- 16
CC[C@H](C)[C@H](NC(=O)[C@H](CO)NC(=O)[C@@H]1CCCN1C(=O)[C@H](CC(C)C)NC(=O)[C@@H](NC(=O)[C@H](CCCCN)NC(=O)[C@H](C)NC(=O)[C@H](C)NC(=O)[C@H](CC(C)C)NC(=O)CNC(=O)[C@H](C)NC(=O)[C@@H](NC(=O)[C@@H](NC(=O)[C@@H]1CCCN1C(=O)[C@H](CC(C)C)NC(=O)[C@H](Cc1ccccc1)NC(=O)[C@H](CCCNC(=N)N)NC(=O)[C@H](CCC(N)=O)NC(=O)[C@H](CCC(=O)O)NC(=O)[C@@H](N)CCC(=O)O)C(C)C)C(C)C)C(C)C)C(=O)N[C@H](C(=O)N[C@@H](CS)C(=O)N[C@@H](C)C(=O)N[C@H](C(=O)N[C@H](C(=O)N[C@@H](CCCCN)C(=O)N[C@@H](CCCCN)C(=O)N[C@@H](CS)C(=O)O)[C@@H](C)O)C(C)C)[C@@H](C)CC [RaSy2] (H-EEQRFLPVVAGLAAKVLPSIICAVTKKC-OH; N-terminus and C-terminus assumed)	–	N/O	–

Where two headings read alike, the source gives them in different places. Where a SMILES comes first, the peptide text is derived from it.
